Results: patent publication US12109179B2, “Pharmaceutical compositions and combinations comprising inhibitors of the androgen receptor and uses thereof” (ESSA Pharma Inc., priority 2019, dated 2024)

Tested on: VCaP cells
Assay: VCaP cell proliferation assay (BrdU incorporation)
Type: cell-based
Conditions: Homo sapiens, read-out: IC50 for blocking proliferation of VCaP cells
Description: BrdU incorporation was used to assess cell proliferation.

SMILES: CNC(=O)c1ccc(N2C(=S)N(c3ccc(C#N)c(C(F)(F)F)c3)C(=O)C2(C)C)cc1F [Enzalutamide, enzalutamide]
- IC50: 164 µM
